Consider three molecules from article doi:10.1101/2023.03.15.532746.

Chains of the proteins cited; added tags and fusions are not shown.
UniProt Q99JR8: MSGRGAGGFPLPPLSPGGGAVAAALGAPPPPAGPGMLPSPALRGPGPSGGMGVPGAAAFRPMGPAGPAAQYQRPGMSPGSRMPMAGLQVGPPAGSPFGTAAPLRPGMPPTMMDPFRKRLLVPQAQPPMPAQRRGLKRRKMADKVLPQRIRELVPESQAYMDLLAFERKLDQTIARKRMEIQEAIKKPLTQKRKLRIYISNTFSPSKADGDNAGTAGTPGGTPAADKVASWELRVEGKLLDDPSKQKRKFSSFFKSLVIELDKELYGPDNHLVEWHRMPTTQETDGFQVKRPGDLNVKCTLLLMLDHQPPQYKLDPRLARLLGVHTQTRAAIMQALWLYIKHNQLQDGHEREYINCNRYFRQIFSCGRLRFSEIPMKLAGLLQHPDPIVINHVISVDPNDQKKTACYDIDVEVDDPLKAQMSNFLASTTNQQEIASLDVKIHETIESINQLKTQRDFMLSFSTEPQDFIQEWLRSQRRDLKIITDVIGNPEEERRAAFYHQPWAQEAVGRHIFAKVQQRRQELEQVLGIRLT
UniProt Q6P9Z1: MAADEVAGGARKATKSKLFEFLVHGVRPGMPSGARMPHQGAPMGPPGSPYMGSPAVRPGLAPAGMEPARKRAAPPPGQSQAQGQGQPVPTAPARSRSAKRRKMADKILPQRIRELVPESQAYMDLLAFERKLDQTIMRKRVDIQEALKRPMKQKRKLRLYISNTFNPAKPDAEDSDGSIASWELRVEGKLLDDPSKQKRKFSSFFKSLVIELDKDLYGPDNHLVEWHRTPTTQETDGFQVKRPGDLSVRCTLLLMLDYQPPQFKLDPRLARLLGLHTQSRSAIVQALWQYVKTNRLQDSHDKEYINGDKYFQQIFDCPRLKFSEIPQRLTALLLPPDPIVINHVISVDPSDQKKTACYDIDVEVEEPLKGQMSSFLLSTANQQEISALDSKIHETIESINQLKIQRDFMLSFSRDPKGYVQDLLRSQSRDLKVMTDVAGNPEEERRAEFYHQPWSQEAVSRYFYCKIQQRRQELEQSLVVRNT

No constants are given. Whether binding was seen depends on the method and setting. In cells and extracts the contact can be indirect. Some results given as binding are weak or reduced against the parent protein; the word gives no strength. Sequences can lack the tags named with a protein.

Common to all, as to assay: co-IP
Assay [1] deals with T1, GFP-tagged BRACHYURY (UniProt P20293).
T1 sequence: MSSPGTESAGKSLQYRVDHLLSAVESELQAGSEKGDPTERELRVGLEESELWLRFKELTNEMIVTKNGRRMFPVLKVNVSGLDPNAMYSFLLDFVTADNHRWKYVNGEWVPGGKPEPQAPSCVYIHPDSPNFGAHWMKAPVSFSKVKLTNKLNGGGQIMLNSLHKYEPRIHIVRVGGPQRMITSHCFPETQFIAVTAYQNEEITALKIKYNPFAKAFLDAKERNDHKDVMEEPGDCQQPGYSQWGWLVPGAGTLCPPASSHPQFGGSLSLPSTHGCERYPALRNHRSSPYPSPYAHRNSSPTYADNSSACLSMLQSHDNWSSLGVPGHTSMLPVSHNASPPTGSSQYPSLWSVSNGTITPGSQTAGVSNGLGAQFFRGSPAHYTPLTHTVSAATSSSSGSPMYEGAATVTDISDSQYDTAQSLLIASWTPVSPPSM

For assay [2], the target named is T2, GFP-tagged EOMES (UniProt O54839).
T2 sequence: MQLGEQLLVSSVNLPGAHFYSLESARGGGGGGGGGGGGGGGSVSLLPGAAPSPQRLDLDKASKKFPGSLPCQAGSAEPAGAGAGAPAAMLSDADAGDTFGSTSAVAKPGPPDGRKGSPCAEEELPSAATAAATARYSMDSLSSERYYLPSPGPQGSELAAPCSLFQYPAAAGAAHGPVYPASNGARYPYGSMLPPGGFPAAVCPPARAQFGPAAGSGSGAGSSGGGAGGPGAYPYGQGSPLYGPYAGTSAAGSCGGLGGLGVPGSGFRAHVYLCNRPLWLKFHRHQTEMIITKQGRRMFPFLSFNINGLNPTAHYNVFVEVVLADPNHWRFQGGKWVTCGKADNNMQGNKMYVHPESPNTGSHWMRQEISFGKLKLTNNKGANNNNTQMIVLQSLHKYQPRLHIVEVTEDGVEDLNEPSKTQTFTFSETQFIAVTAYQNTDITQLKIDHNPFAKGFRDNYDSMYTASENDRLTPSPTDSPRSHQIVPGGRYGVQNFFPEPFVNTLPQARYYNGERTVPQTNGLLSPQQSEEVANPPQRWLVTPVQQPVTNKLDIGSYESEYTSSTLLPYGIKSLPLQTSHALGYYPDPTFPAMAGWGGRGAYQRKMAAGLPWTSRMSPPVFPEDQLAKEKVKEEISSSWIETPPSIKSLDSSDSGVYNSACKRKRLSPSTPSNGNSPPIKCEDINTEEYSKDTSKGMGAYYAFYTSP

Assay [3] addresses T3, GFP-tagged EOMES, O54839.
T3 chain: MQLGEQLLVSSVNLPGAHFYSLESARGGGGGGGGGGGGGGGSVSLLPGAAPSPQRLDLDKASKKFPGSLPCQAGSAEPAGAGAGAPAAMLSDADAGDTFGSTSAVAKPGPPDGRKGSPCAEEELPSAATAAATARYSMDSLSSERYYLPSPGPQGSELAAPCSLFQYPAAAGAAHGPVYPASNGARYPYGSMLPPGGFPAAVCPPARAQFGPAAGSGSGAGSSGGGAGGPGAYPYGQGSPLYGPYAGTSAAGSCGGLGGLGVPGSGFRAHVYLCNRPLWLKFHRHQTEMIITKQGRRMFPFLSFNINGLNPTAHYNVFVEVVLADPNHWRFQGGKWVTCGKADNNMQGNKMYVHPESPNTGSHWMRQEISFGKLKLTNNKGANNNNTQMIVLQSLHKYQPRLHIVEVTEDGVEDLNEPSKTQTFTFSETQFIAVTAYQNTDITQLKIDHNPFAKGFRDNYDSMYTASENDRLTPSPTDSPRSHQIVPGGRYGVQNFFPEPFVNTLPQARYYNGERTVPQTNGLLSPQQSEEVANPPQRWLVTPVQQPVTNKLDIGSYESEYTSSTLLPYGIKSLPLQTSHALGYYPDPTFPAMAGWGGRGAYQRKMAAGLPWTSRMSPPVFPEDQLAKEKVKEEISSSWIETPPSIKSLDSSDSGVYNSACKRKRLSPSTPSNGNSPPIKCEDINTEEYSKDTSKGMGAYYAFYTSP
As to conditions: remark: other sources report otherwise.

Take “V5-tagged SMARCD2 (from UniProt Q99JR8 1-531)”: the binding result in assay [1] and in assay [2] was “binds” in each case.
On to “V5-tagged SMARCD3 (from UniProt Q6P9Z1 1-483)”, for which the binding result in assay [2] is given as “no binding”.

B1: V5-tagged SMARCD1, Q61466 1-515 (protein)
chain: MAARAGFQSVAPSGGAGASGGAGVAAALGPGGTPGPPVRMGPAPGQGLYRSPMPGAAYPRPGMLPGSRMTPQGPSMGPPGYGGNPSVRPGLAQSGMDQSRKRPAPQQIQQVQQQAVQNRNHNAKKKKMADKILPQRIRELVPESQAYMDLLAFERKLDQTIMRKRLDIQEALKRPIKQKRKLRIFISNTFNPAKSDAEDGEGTVASWELRVEGRLLEDAALSKYDATKQKRKFSSFFKSLVIELDKDLYGPDNHLVEWHRTATTQETDGFQVKRPGDVNVRCTVLLMLDYQPPQFKLDPRLARLLGIHTQTRPVIIQALWQYIKTHKLQDPHEREFVLCDKYLQQIFESQRMKFSEIPQRLHALLMPPEPIIINHVISVDPNDQKKTACYDIDVEVDDTLKTQMNSFLLSTASQQEIATLDNKIHETIETINQLKTQREFMLSFARDPQGFINDWLQSQCRDLKTMTDVVGNPEEERRAEFYFQPWAQEAVCRYFYSKVQQRRQELEQALGIRNT
Regarding B1, in assay [3], the binding entry is listed as “no binding”.
